Experimental data published in publication PMC6380604.

By UniProt entry, the sequences of proteins in these tests, tags left out. Where a name states a change or a piece, a line headed by the entry shows the natural chain unless it says otherwise. Residues count along the entry.
UniProt P78324, residues 31-504: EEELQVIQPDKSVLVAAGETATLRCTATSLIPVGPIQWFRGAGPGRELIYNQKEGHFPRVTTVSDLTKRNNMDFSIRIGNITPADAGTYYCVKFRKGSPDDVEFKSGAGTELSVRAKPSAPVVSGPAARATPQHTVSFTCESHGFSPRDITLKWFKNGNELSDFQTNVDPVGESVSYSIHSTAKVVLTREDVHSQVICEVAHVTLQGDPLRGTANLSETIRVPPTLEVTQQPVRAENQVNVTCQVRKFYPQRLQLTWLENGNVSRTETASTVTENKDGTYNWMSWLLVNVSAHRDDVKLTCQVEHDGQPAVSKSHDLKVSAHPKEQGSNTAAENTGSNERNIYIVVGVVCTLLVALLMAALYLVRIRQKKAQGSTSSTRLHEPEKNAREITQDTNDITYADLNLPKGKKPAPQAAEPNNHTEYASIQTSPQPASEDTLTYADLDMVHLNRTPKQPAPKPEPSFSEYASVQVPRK
UniProt Q9ESN6: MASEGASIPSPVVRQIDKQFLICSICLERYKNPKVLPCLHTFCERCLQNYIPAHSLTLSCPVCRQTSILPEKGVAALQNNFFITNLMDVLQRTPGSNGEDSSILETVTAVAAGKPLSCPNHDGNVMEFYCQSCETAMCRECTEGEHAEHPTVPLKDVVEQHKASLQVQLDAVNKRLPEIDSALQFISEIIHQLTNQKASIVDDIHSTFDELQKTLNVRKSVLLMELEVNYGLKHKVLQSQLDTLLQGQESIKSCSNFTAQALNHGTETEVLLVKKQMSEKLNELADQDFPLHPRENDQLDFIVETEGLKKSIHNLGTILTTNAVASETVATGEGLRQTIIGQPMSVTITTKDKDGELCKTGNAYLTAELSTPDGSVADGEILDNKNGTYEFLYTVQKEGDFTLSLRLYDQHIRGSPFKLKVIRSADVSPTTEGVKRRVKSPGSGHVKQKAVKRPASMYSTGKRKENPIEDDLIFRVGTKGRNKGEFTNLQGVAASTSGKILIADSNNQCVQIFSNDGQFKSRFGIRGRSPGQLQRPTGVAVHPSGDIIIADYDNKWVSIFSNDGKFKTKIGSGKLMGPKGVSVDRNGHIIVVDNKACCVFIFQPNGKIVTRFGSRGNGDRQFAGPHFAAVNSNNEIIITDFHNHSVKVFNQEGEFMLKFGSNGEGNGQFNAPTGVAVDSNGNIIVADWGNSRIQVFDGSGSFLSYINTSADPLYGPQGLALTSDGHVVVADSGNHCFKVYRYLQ

Molecular target: FLAG-tagged human signal regulatory protein α (SIRPA) (human) (UniProt P78324)
Experiment: co-IP

binding: binds
Substance: TRIM2 NHL construct (NHL domain only), c-myc-tagged (from UniProt Q9ESN6) (domain or fragment)

Results are given in words; binding and its absence hold for the method and conditions named. In cells and extracts the contact can be indirect. Binding calls can cover weak binding; strength is not graded here.
